No constants are given. Whether binding was seen depends on the method and setting. In cells and extracts the contact can be indirect. Sequences can lack the tags named with a protein.
Target: T1, V5-tagged active WNT11 (UniProt O96014)
T1 sequence: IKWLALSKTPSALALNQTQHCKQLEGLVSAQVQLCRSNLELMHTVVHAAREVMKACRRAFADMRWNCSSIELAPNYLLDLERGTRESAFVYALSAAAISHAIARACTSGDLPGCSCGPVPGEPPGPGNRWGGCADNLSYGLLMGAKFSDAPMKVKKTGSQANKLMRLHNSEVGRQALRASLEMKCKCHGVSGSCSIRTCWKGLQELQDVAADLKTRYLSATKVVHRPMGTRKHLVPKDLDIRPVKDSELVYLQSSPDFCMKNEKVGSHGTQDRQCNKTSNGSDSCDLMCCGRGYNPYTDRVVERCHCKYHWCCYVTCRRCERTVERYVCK
Experiment: co-IP

Chains of the proteins cited; added tags and fusions are not shown. Lines headed by an entry give the natural chain unless they say otherwise; changes in a name come on top.
UniProt Q01974: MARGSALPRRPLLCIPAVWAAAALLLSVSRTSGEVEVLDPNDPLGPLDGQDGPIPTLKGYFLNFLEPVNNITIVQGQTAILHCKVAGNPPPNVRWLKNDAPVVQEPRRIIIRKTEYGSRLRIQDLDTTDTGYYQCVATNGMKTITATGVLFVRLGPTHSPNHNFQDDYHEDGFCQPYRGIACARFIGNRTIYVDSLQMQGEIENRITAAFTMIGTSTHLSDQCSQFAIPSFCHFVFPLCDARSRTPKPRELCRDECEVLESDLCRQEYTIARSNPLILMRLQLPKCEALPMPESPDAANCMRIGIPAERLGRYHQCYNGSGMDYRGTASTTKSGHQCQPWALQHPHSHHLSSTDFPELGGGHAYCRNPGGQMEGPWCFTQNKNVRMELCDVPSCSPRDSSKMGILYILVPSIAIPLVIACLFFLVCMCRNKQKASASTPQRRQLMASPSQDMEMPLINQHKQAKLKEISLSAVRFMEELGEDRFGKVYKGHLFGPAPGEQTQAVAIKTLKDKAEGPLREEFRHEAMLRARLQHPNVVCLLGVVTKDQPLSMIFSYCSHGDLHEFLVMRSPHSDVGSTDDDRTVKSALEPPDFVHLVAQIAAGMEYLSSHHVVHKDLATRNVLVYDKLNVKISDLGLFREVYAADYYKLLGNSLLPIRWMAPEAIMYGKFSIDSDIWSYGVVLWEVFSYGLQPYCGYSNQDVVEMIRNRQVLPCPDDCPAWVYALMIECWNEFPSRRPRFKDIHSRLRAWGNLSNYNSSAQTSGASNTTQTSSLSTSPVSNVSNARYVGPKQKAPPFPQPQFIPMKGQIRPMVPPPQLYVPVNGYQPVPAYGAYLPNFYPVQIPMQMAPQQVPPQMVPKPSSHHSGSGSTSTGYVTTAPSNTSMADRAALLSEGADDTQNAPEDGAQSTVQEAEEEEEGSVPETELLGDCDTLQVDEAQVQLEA

binding: no binding
Substance: ROR2-ΔΔ (amino acids 304-943) (from UniProt Q01974) (domain or fragment)
